Laboratory results: patent US6375999B1, “Methods for treating potatoes” (priority 1993, dated 2002)
Entries after “also recorded” stand apart in the source; their conditions may differ. For at least one compound, name, drawing or mass did not settle the structure.

Legend:
Type in all cases: in vivo, potato
[1] = system: potatoes which have started to sprout; experiment: treatment of potatoes which have started to sprout; conditions: certain types of potatoes which have started to sprout
From the text: For example, in treating a potato storage facility with liquid sprout inhibitor such as an isomer of DMN, especially the 1,4 and 1,6 isomers of DMN, it is only necessary to have a very low concentration of DMN in the atmosphere inasmuch as the quantity of DMN in a potato is very low so that only very minor quantities of DMN respire or exit the potato. Thus, only a very low partial pressure for DMN is created in a static air space surrounding a potato by respiration. The purpose of DMN in the atmosphere surrounding potatoes is to stop or reduce the exiting of DMN from the potato. Once DMN exiting starts, it is believed that such departure initiates the process which leads to sprouting. […] Thus, in applying liquid sprout inhibitors which are found natively in potatoes it is generally preferred to initiate treatment prior to the onset of sprouting and preferably prior to any considerable exiting of DMN, for example, from the stored potato.
Although, as indicated in the Plant patent, CIPC is not applied until after suberization (wound healing). DMN is preferably applied initially shortly after the potatoes have been put into the facility. […] Also, unlike CIPC, DMN is not a foreign material to a potato.

[2] = system: freshly harvested potatoes; experiment: Example: freshly harvested potatoes treated with DMN on being placed in a storage facility; conditions: initial DMN residue about 2 to 5 ppm
[3] = system: freshly dug potatoes; experiment: early treatment of injured, freshly dug potatoes with DMN: suberization (healing) versus untreated potatoes

In the case of Cc1ccc2ccccc2c1C [DMN, dimethylnaphthalene], the “effect on sprouting once sprouting has been initiated” value [1] was “does not reduce significantly the sprouting; also recorded: does not retard sprouting once it has begun”, the “suberization process compared with untreated controls” value [2] was “occurred more quickly” and the “spoilage compared with control potatoes without DMN treatment” value ([2]; samples about 20 days after DMN treatment) was “less spoilage than control potatoes”. The “healing of Russet Burbank potato under DMN treatment” value ([3]; Russet Burbank, low humidity and high temperature conditions) was “heal extremely quickly”, the “speed of suberization / healing process compared with untreated potatoes” value ([3]; freshly dug, injured potatoes, early DMN treatment) was “approximately twice as fast; also recorded: about twice as fast; also recorded: healed much more rapidly” and the “rot progression in potatoes showing some signs of spoilage when treated” value ([3]; inspected periodically over a several week period) was “did not show increased rot”.
